HELM strings list residues between dots; [ac] is acetyl, [am] amide, other brackets name non-standard units. Square brackets hold non-standard residues; d marks the D form.

The first data set can be described thus: general procedure: Boc solid-phase peptide synthesis; chloromethylated copolystyrene-divinylbenzene 1% crosslinkage (0.75 mequiv. Cl/g) for linear peptides; oxime-resin (Nova); pre-formed symmetrical anhydrides of Boc-amino acids. The conditions noted are these: whole synthesis.
In the case of “cyclo(GQY[dR]) (SMILES N=C(N)NCCC[C@H]1NC(=O)[C@H](Cc2ccc(O)cc2)NC(=O)[C@H](CCC(N)=O)NC(=O)CNC1=O)”, the isolated yield stood at 5%.

Staying with this data set, now noted: whole synthesis, HPLC; thin layer chromatography.
On to “cyclo(GQYR) (SMILES N=C(N)NCCC[C@@H]1NC(=O)[C@H](Cc2ccc(O)cc2)NC(=O)[C@H](CCC(N)=O)NC(=O)CNC1=O)”, for which the “final HPLC purity” value is on record as 95%-98%. In the case of “PEPTIDE1{R.Q.A.R}$PEPTIDE1,PEPTIDE1,4:R2-1:R1$$$V2.0”, the “final HPLC purity” value was 95%-98%. For the substance PEPTIDE1{R.Q.A.R}$$$$V2.0, the “final HPLC purity” value is 95%-98%. On the same count and under the same terms, for H-GQGR-OH the value was 95%-98%; for H-RQGR-OH, 95%-98%; for “cyclo(ARGQ) (SMILES C[C@@H]1NC(=O)[C@H](CCC(N)=O)NC(=O)CNC(=O)[C@H](CCCNC(=N)N)NC1=O)”, 95%-98%. For the substance “cyclo(ARGQARGQ) (SMILES C[C@@H]1NC(=O)[C@H](CCC(N)=O)NC(=O)CNC(=O)[C@H](CCCNC(=N)N)NC(=O)[C@H](C)NC(=O)[C@H](CCC(N)=O)NC(=O)CNC(=O)[C@H](CCCNC(=N)N)NC1=O)”, the “final HPLC purity” value is given as 98%. For the substance “cyclo(ARRQARRQ) (SMILES C[C@@H]1NC(=O)[C@H](CCC(N)=O)NC(=O)[C@H](CCCNC(=N)N)NC(=O)[C@H](CCCNC(=N)N)NC(=O)[C@H](C)NC(=O)[C@H](CCC(N)=O)NC(=O)[C@H](CCCNC(=N)N)NC(=O)[C@H](CCCNC(=N)N)NC1=O)”, the “final HPLC purity” value came to 95%.

As for H-GQAR-OH, the “final HPLC purity” value is 95%-98%.

Staying with this data set, now noted: whole synthesis, based on the starting Boc-amino acid resin.
In the case of H-GQAR-OH, the isolated yield was 20-25%.

For the origin of these results see patent publication US6566327B1 (University of Ottawa, priority 1997, dated 2003).
